Test results from patent US6603023B2 (priority 1996, dated 2003).
Counter-ions that a name gives are not always drawn. The amount applied is not stated for every result.

Each compound was assayed on CCRF-CEM (assay: Drug combination analysis (combination index, XTT, 72 h)).
Type: cell-based, human
C/C(=C\c1csc(C)n1)[C@@H]1C[C@@H]2O[C@]2(C)CCC[C@H](C)[C@H](O)[C@@H](C)C(=O)C(C)(C)[C@@H](O)CC(=O)O1 [#8, epothilone B] was tested, and the “m (median-effect plot parameter)” value was 1.716.
In the case of CC(=O)O[C@H]1C(=O)[C@@]2(C)[C@H]([C@H](OC(=O)c3ccccc3)[C@]3(O)C[C@H](OC(=O)[C@H](O)[C@@H](NC(=O)c4ccccc4)c4ccccc4)C(C)=C1C3(C)C)[C@]1(OC(C)=O)CO[C@@H]1C[C@@H]2O [Taxol ®, paclitaxel], the “m (median-effect plot parameter)” value is reported as 2.147.
CC[C@]1(O)C[C@@H]2CN(CCc3c([nH]c4ccccc34)[C@@](C(=O)OC)(c3cc4c(cc3OC)N(C)[C@H]3[C@@](O)(C(=O)OC)[C@H](OC(C)=O)[C@]5(CC)C=CCN6CC[C@]43[C@@H]65)C2)C1 [Vinblastine, Vinblastine sulfate] was tested, and the “m (median-effect plot parameter)” value was 1.762.
